Results as given in patent US10159726B2, “Peptides, combination of peptides and scaffolds for use in immunotherapeutic treatment of various cancers” (Immatics Biotechnologies GmbH, priority 2015, dated 2018).

Tested on: HLA-A*24 molecules of primary tumors
Assay: Identification and relative LC-MS quantitation of HLA-A*24 tumor-associated peptides presented on tissue samples (XPRESIDENT presentation profiles)
Parameters: species or system human
Details: for ENTITIES: Table 9A: selected HLA-A*24-binding tumor-associated peptides, cancer entities on which the peptide was found presented; for Peptide Presentation on cancer entities: Table 9B: selected HLA-A*24 peptides, presentation on additional cancer entities

With “183 (PYLQDVPRI; listed as Homo sapiens) [compound 183]” as the substance, how does the ENTITIES read?
The ENTITIES was “NSCLC, GB”.

Which “Peptide Presentation on cancer entities” value does the source give for “184 (IYSVGAFENF; listed as Homo sapiens) [compound 184]” here?
Its value is “NSCLC”.

How did the ENTITIES turn out when “186 (VFTTSSNIF; listed as Homo sapiens) [compound 186]” was run?
The ENTITIES was “NSCLC, GB”.

How did the ENTITIES turn out when “187 (AYAANVHYL; listed as Homo sapiens) [compound 187]” was run?
Its ENTITIES is “NSCLC”.

Which ENTITIES does the source give for “192 (RYSTFSEIF; listed as Homo sapiens) [compound 192]” here?
Its ENTITIES is “HCC, NSCLC, GC”.

With “193 (LYLENNAQTQF; listed as Homo sapiens) [compound 193]” as the substance, how does the “Peptide Presentation on cancer entities” value read?
Its value is “NSCLC”.

For “194 (VYQSLSNSL; listed as Homo sapiens) [compound 194]”, which ENTITIES is on record?
The ENTITIES was “NSCLC”.

“195 (AYIKGGWIL; listed as Homo sapiens) [compound 195]” was tested. Which ENTITIES did it give?
The ENTITIES was “RCC, HCC, NSCLC, GC”.

Which ENTITIES does the source give for “196 (GYIRGSWQF; listed as Homo sapiens) [compound 196]” here?
Its ENTITIES is “NSCLC, GC”.

With “197 (IFTDIFHYL; listed as Homo sapiens) [compound 197]” as the substance, how does the ENTITIES read?
Its ENTITIES is “HCC, NSCLC, GC, GB”.

Which ENTITIES does the source give for “199 (SYLNHLNNL; listed as Homo sapiens) [compound 199]” here?
The ENTITIES was “NSCLC”.

Which “Peptide Presentation on cancer entities” value does the source give for “200 (VFIHHLPQF; listed as Homo sapiens) [compound 200]” here?
The value was “HCC”.

“201 (GYNPNRVFF; listed as Homo sapiens) [compound 201]” was tested. Which ENTITIES did it give?
The ENTITIES was “GB, NSCLC”.

How did the “Peptide Presentation on cancer entities” value turn out when “203 (VYNVEVKNAEF; listed as Homo sapiens) [compound 203]” was run?
The value was “NSCLC”.

How did the “Peptide Presentation on cancer entities” value turn out when “205 (VYPVVLNQI; listed as Homo sapiens) [compound 205]” was run?
Its value is “NSCLC”.

For “206 (NYLDVATFL; listed as Homo sapiens) [compound 206]”, which ENTITIES is on record?
Its ENTITIES is “NSCLC, GC, GB, PCA, HCC”.

For “207 (LYSDAFKFIVF; listed as Homo sapiens) [compound 207]”, which ENTITIES is on record?
The ENTITIES was “NSCLC”.

For “208 (TYLEKIDGF; listed as Homo sapiens) [compound 208]”, which “Peptide Presentation on cancer entities” value is on record?
The value was “NSCLC”.

How did the ENTITIES turn out when “209 (AFIETPIPLF; listed as Homo sapiens) [compound 209]” was run?
Its ENTITIES is “NSCLC”.

Which “Peptide Presentation on cancer entities” value does the source give for “211 (VFKSEGAYF; listed as Homo sapiens) [compound 211]” here?
Its value is “NSCLC”.

“215 (SYVASFFLL; listed as Homo sapiens) [compound 215]” was tested. Which ENTITIES did it give?
The ENTITIES was “GC, NSCLC”.

For “216 (FYVNVKEQF; listed as Homo sapiens) [compound 216]”, which “Peptide Presentation on cancer entities” value is on record?
The value was “NSCLC”.

With “217 (IYISNSIYF; listed as Homo sapiens) [compound 217]” as the substance, how does the ENTITIES read?
The ENTITIES was “NSCLC, GC”.

Which ENTITIES does the source give for “221 (KYIGNLDLL; listed as Homo sapiens) [compound 221]” here?
The ENTITIES was “NSCLC, GB”.

How did the “Peptide Presentation on cancer entities” value turn out when “222 (HYSTLVHMF; listed as Homo sapiens) [compound 222]” was run?
Its value is “NSCLC”.

For “223 (TFITQSPLL; listed as Homo sapiens) [compound 223]”, which ENTITIES is on record?
The ENTITIES was “NSCLC”.

For “224 (PYFFANQEF; listed as Homo sapiens) [compound 224]”, which “Peptide Presentation on cancer entities” value is on record?
Its value is “HCC”.

With “225 (TYTNTLERL; listed as Homo sapiens) [compound 225]” as the substance, how does the ENTITIES read?
Its ENTITIES is “NSCLC”.

Which ENTITIES does the source give for “226 (MYLKLVQLF; listed as Homo sapiens) [compound 226]” here?
Its ENTITIES is “HCC, GC”.

Which “Peptide Presentation on cancer entities” value does the source give for “227 (IYRFITERF; listed as Homo sapiens) [compound 227]” here?
Its value is “NSCLC”.

For “228 (IYQYVADNF; listed as Homo sapiens) [compound 228]”, which ENTITIES is on record?
Its ENTITIES is “NSCLC”.

Which ENTITIES does the source give for “229 (IYQFVADSF; listed as Homo sapiens) [compound 229]” here?
The ENTITIES was “NSCLC”.

With “230 (TYGMVMVTF; listed as Homo sapiens) [compound 230]” as the substance, how does the “Peptide Presentation on cancer entities” value read?
Its value is “NSCLC”.

Which “Peptide Presentation on cancer entities” value does the source give for “231 (AFADVSVKF; listed as Homo sapiens) [compound 231]” here?
The value was “NSCLC”.
